Source: PMC3820264

Target: G2320R mutant form of thyroglobulin with three C-terminal Myc tags
Assay: affinity purification with mass spectrometry; Myc-tagged Tg^rdw precipitated with anti-Myc agarose (ProFound c-Myc Tag IP/Co-IP Kit) from lysates of rib chondrocytes of 5-day-old Col2-Tg^rdw mice; cells treated with 25 mM NEM before lysis in 25 mM Tris-HCl pH 7.4, 150 mM NaCl, 1 mM EDTA, 1% Triton X-100, 5% glycerol, 0.5 mM PMSF; co-precipitating proteins identified by LC-MS/MS

B1: PDIA6 (protein, UniProt Q922R8 20-440)
chain: LYSSSDDVIELTPSNFNREVIQSDGLWLVEFYAPWCGHCQRLTPEWKKAATALKDVVKVGAVNADKHQSLGGQYGVQGFPTIKIFGANKNKPEDYQGGRTGEAIVDAALSALRQLVKDRLGGRSGGYSSGKQGRGDSSSKKDVVELTDDTFDKNVLDSEDVWMVEFYAPWCGHCKNLEPEWAAAATEVKEQTKGKVKLAAVDATVNQVLASRYGIKGFPTIKIFQKGESPVDYDGGRTRSDIVSRALDLFSDNAPPPELLEIINEDIAKKTCEEHQLCVVAVLPHILDTGAAGRNSYLEVLLKLADKYKKKMWGWLWTEAGAQYELENALGIGGFGYPAMAAINARKMKFALLKGSFSEQGINEFLRELSFGRGSTAPVGGGSFPTITPREPWDGKDGELPVEDDIDLSDVELDDLEKDEL
For B1, the binding was “binds”.

Results are given in words; binding and its absence hold for the method and conditions named. In cells and extracts the contact can be indirect. A yes stands for co-enrichment or nearness to the bait. Other partners may have been found.
